# According to patent publication US20070269892A1 (NASTECH PHARMACEUTICAL COMPANY INC., priority 2006, published 2007):
# Assay: general procedure: Fmoc solid-phase peptide synthesis; Wang resin with first amino acid loaded (0.45 mmol/μm); HOBt and DIC double coupling
# Conditions: whole synthesis, scale 90 umol
Substance,crude yield [%],isolated yield [%]
Cys-Trp-(Lys)4-His-(Lys)4-Cys (CWKKKKHKKKKC),53.1,21.1
Cys-Trp-(Lys)4-Cys (CWKKKKC),61.6,29.6
Cys-Trp-(Lys)4-Cys-(Lys)4-Cys (CWKKKKCKKKKC),51,20.1
Cys-Trp-(Lys)6-Cys (CWKKKKKKC),53.2,25.4
Cys-Trp-(Lys)8-Cys (CWKKKKKKKKC),54.1,23.2
Cys-Trp-His-(Lys)4-His-(Lys)4-Cys (CWHKKKKHKKKKC),39.8,17.5
Cys-Trp-His-(Lys)4-His-(Lys)4-His-Cys (CWHKKKKHKKKKHC),45.2,13.8
Cys-Trp-(Lys)10-Cys (CWKKKKKKKKKKC),51,18.9
